In paper PMC3882236, “A Neutralization Epitope in the Hepatitis C Virus E2 Glycoprotein Interacts with Host Entry Factor CD81” (PLoS ONE, 2014):
Results are given in words; binding and its absence hold for the method and conditions named. Some results given as binding are weak or reduced against the parent protein; the word gives no strength. Where a sequence is shown, tags or fusion partners need not be part of it.

Experiments:
Assay in all cases: luciferase-based plate binding assay; supernatant (100 uL/well) with E2-16Fc or a mutant form held on protein A-coated 96-well plates, room temperature, 1 h; PBS-T wash; CD81-Luc supernatant (2.5x10^6 units of luciferase activity in 30 uL) added for 1 h, with or without 1H8 (10 or 50 ug/reaction); PBS-T rinse; bound luciferase activity read
[1] = target: E2-16Fc S528T (Hepatitis C virus genotype 1a, H77 strain) (UniProt P27958)
[2] = target: E2-16Fc A524G (Hepatitis C virus genotype 1a, H77 strain) (UniProt P27958)
[3] = target: E2-16Fc S528N (Hepatitis C virus genotype 1a, H77 strain) (UniProt P27958)
[4] = target: E2-16Fc P525A (Hepatitis C virus genotype 1a, H77 strain) (UniProt P27958)
[5] = target: E2-16Fc S528A (Hepatitis C virus genotype 1a, H77 strain) (UniProt P27958)
[6] = target: E2-16Fc (HCV E2 protein residues 384-661 fused to human IgG1 Fc) (Hepatitis C virus genotype 1a, H77 strain) (UniProt P27958)
[7] = target: E2-16Fc A524V (Hepatitis C virus genotype 1a, H77 strain) (UniProt P27958)

Measured: binding

B1: CD81-Luc (large extracellular domain of human CD81, residues 113-201, fused with gaussia luciferase) (domain or fragment, UniProt P60033 113-201, looked up)
chain: FVNKDQIAKDVKQFYDQALQQAVVDDDANNAKAVVKTFHETLDCCGSSTLTALTTSVLKNNLCPSGSNIISNLFKEDCHQKIDDLFSGK
notes: human CD81, large extracellular domain, residues 113-201; source: Huh7, transiently transfected, secreted into the cell culture medium (supernatant)
binds: all assays above
